Data as given in PubChem BioAssay AID1224830 (NIAID, 2016)
The deposit covers about 18,000 reagents; shown is an unselected part. About 2,900 of all reagents (16%) count as active. 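Calls are made per well; low scores hint the gene aids the LPS response, high scores that it dampens it.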 Entries without a mark were called inactive. Repeated entries: four replicate wells of each siRNA pool.

- Screen: 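Genes whose knock-down alters the TNF-alpha reporter response to LPS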 (primary screen)
- Cells: human THP-1 monocytic leukaemia cells, TNF dual-luciferase reporter clone, PMA-differentiated to macrophage-like cells
- Reagent: siRNA pool against human genes, 50 nM
- Timing: LPS for 4 h, given about 3 days after siRNA transfection
- Challenge: bacterial LPS (TLR4 ligand), 10 ng/ml
- Measurement: 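TNF firefly reporter luminescence divided by renilla, normalised to the plate median, then turned into a robust z-score for each replicate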
- Direction: TNF reporter robust z-score: higher = stronger TNF reporter response to LPS
- Active means: 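a well is active when its z-score exceeds 2.8 or falls below -1.5; control wells carry no call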

NUP54 (nucleoporin 54) scored TNF reporter robust z-score -1.28.
Depletion of NUP54 (nucleoporin 54) came out at: TNF reporter robust z-score -0.98.
NUP54 (nucleoporin 54) showed TNF reporter robust z-score -0.63.
Depletion of NUP54 (nucleoporin 54) resulted in: TNF reporter robust z-score 0.57.
After knock-down of DNAJB11 (DnaJ heat shock protein family (Hsp40) member B11), the screen gave TNF reporter robust z-score 1.58.
Against DNAJB11 (DnaJ heat shock protein family (Hsp40) member B11) the deposit lists TNF reporter robust z-score 2.63.
DNAJB11 (DnaJ heat shock protein family (Hsp40) member B11) scored TNF reporter robust z-score -0.25.
With knock-down of DNAJB11 (DnaJ heat shock protein family (Hsp40) member B11) the results were TNF reporter robust z-score 2.26.
Depletion of PCP2 (Purkinje cell protein 2) resulted in: TNF reporter robust z-score -0.98.
Silencing of PCP2 (Purkinje cell protein 2) resulted in: TNF reporter robust z-score -0.61.
With knock-down of PCP2 (Purkinje cell protein 2), the screen gave TNF reporter robust z-score -0.26.
Depletion of PCP2 (Purkinje cell protein 2) came out at: TNF reporter robust z-score -0.8.

2 of these entries, set out differently.
{"target": "DNAJB11 (DnaJ heat shock protein family (Hsp40) member B11)", "TNF reporter robust z-score": -0.25}
{"target": "DNAJB11 (DnaJ heat shock protein family (Hsp40) member B11)", "TNF reporter robust z-score": 2.26}

Next records follow:
Knock-down of GUCA2A (guanylate cyclase activator 2A) gave: TNF reporter robust z-score 0.57.
GUCA2A (guanylate cyclase activator 2A) gave TNF reporter robust z-score 0.05.
Depletion of GUCA2A (guanylate cyclase activator 2A) came out at: TNF reporter robust z-score 0.71.
Knock-down of GUCA2A (guanylate cyclase activator 2A) came out at: TNF reporter robust z-score 1.56.
PDE1C (phosphodiesterase 1C) showed TNF reporter robust z-score 0.08.
After knock-down of PDE1C (phosphodiesterase 1C), the record shows TNF reporter robust z-score 1.03.
Against PDE1C (phosphodiesterase 1C) the deposit lists TNF reporter robust z-score 0.28.
For PDE1C (phosphodiesterase 1C), the entry reads TNF reporter robust z-score 0.91.
